According to PubChem BioAssay AID587 (National Center for Advancing Translational Sciences (NCATS), 2007):
Out of some 59,000 compounds screened, about 35 (0.06%) were called active. Inconclusive results, whose numbers are uncertain, are shown with a selection of clear calls. Rule as the data show it: active = max dye-equivalent concentration above about 10 nM; inconclusive = between about 1.1 nM and that limit; inactive = weaker than that.

Assay: qHTS Assay for Spectroscopic Profiling in Texas Red Spectral Region
Conditions: Compound fluorescence, Texas Red channel, 547/618 nm; stronger effect = higher value
Procedure, shortened: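 Dye-equivalent concentrations come from scaling compound signal (ex 547, em 618 nm) to six Texas Red standard concentrations run on every plate, after 15 min room-temperature incubation in pH 8.0 Tris (100 mM).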

SMILES | max dye-equivalent concentration
CN1CCN(c2ncc3nc(-c4ccccc4)c(=O)n(C)c3n2)CC1 | inactive
CCn1cc(C(=O)N2CCCc3ccccc32)c2cc(OC)c(OC)cc2c1=O | inconclusive: 1.4 nM
O=C(CSc1ccc2c(c1)OCCO2)NC(=O)NC1CCCC1 | inconclusive: 1.7 nM
Clc1ccc([C@@H](c2ccccc2Cl)C(Cl)Cl)cc1 | inconclusive: 1.7 nM
FC(F)(F)c1cc(-c2ccco2)nc(-n2nnc3ccccc32)n1 | inconclusive: 1.2 nM
O=C1C2ON(c3ccc(Cl)cc3)C(c3ccco3)C2C(=O)N1c1ccccc1 (stereo not drawn) | inconclusive: 1.8 nM
CCOC(=O)C1CCN(c2nc3ccccc3nc2C(C#N)C(=O)NCCc2ccccc2)CC1 (stereo not drawn) | inactive
CCOc1ccc(CCNS(=O)(=O)c2cnc[nH]2)cc1OCC | inconclusive: 1.1 nM
CC(N)=O | inconclusive: 1.3 nM
O=C1CCN2C=Nc3cccc4ccc1c2c34 | inactive
Cc1c2c(nc3c(C(=O)NC4CC4)cnn13)CCCC2 | inconclusive: 1.3 nM
CN(C)c1ccc(C(=C2C=CC(=[N+](C)C)C=C2)c2c(O)c(S(=O)(=O)O)cc3cc(S(=O)(=O)O)ccc23)cc1 | inactive
CCOC(=O)c1c(C)n(C)c2ccc(OC)c(NS(=O)(=O)c3ccc(Cl)s3)c12 | inconclusive: 1.2 nM
Fc1cccc(F)c1CN1CCN(c2ncccn2)CC1 | inconclusive: 1.1 nM
c1ccc(Cn2nnc3c(NCCN4CCOCC4)ncnc32)cc1 | inactive
Cc1ccc(NC(=O)CCn2nc(C)cc2C)c(C)c1 | inconclusive: 1.2 nM
Cc1cccc(N=C2NC(=O)CS2)c1 | inconclusive: 3.1 nM
c1cc(-c2noc(CC3CCCCC3)n2)ccn1 | inconclusive: 1.8 nM
CCOC(=O)C(NC(=O)CC)(Nc1ccccc1OC)C(F)(F)F (stereo not drawn) | inconclusive: 1.5 nM
Cc1sc2nc(CSc3nc4ccccc4c(=O)n3CCCN3CCOCC3)[nH]c(=O)c2c1C | inactive
COc1ncc2nc(CCc3ccccc3)c(=O)n(C)c2n1 | inconclusive: 1.1 nM

SMILES | max dye-equivalent concentration
CCn1c(N2CCN(C(=O)C34CC5CC(CC(C5)C3)C4)CC2)nc2ccccc21 | inconclusive: 1.3 nM
Cc1ccc2c(CNCc3ccco3)cc(=O)oc2c1 | inconclusive: 1.3 nM
CCCC(=O)Nc1ccc(C(=O)O)cc1NC(=O)CCC | inconclusive: 1.3 nM
CN=C(Nc1cc(C)nn1-c1ccccc1)c1ccccc1 | inconclusive: 2.7 nM
Cc1cc(C)c2c(CC(=O)Nc3nccs3)coc2c1 | inconclusive: 1.1 nM
CCC(=O)Nc1cccc(C(=O)c2ccccc2)c1 | inconclusive: 2.9 nM
CC(=O)N[C@@H](CC(C)C)C(=O)O | inconclusive: 1.1 nM
COc1ccc(N=c2oc3cc(O)ccc3cc2C(=O)NCC2CCCO2)cc1 (stereo not drawn) | inactive
Cc1noc(C)c1C(=O)Nc1c(F)cc(F)cc1Br | inconclusive: 1.6 nM
CN1CCN(c2ccc3nc(-c4ccc5nc(-c6ccc(O)cc6)[nH]c5c4)[nH]c3c2)CC1 | inactive
Cc1cc(C)n(S(=O)(=O)c2cc(C(=O)O)c(Cl)cc2Cl)n1 | inconclusive: 1.8 nM
COCc1nc(-c2cc(OC)c(OC)c(OC)c2)no1 | inconclusive: 1.1 nM
COc1ccc2c(c1OC)C(=O)N1C2SC[C@H]1C(=O)NC1CC(C)(C)NC(C)(C)C1 (stereo partly drawn) | inconclusive: 1.2 nM
Cn1c(=O)c2c(nc(CN3CCc4ccccc4C3)n2CCc2ccccc2)n(C)c1=O | inconclusive: 1.1 nM
c1ccc(Cn2nnnc2-c2ccco2)cc1 | inconclusive: 1.9 nM
COc1ccc(C2C(C(=O)N3CCOCC3)=C(C)NC3=C2C(=O)CC(C)(C)C3)c(OC)c1 (stereo not drawn) | inconclusive: 3 nM
O=C(Cn1cnc2c(cnn2-c2ccc(F)cc2)c1=O)OCc1ccccc1 | inconclusive: 1.1 nM
CN(C)c1ccc(N=Cc2nc(-c3ccccc3)oc2O)cc1 | inactive
CNC(=O)C1CCCN1S(=O)(=O)c1ccc(OC)cc1 (stereo not drawn) | inconclusive: 1.2 nM
O=C(CSc1nnnn1C1CCCC1)NCc1ccc2c(c1)OCO2 | inconclusive: 1.6 nM
O=C(COC(=O)CN1C(=O)C2CC=CCC2C1=O)Nc1cc(C(F)(F)F)ccc1N1CCOCC1 (stereo not drawn) | inconclusive: 1.1 nM
CCCCC(=O)Nc1ccc(NC(=O)C(C)C)cn1 | inconclusive: 1.4 nM

SMILES | max dye-equivalent concentration
COCCNC(=O)C(c1ccc(C)o1)N(Cc1ccc(F)cc1)C(=O)Cn1nnc2ccccc21 (stereo not drawn) | inconclusive: 1.1 nM
Cc1ccn2cc(C(=O)Nc3ccccc3N3CCOCC3)nc2c1 | inconclusive: 1.9 nM
Cc1ccc2c(c1)-c1cc(C)nn1C(c1ccc3c(c1)OCO3)N2 (stereo not drawn) | inconclusive: 1.2 nM
COc1ccccc1NC(=O)CN1CCN(CC(=O)Nc2ccc3c(c2)OCO3)CC1 | inconclusive: 1.2 nM
NCCCCCNC(=O)/C=N\O | inconclusive: 1.2 nM
CCOc1ccc(-n2c(SCC(N)=O)nc3c(c2=O)SCC3)cc1 | inconclusive: 1.5 nM
Cn1c(SCC(N)=O)nnc1C1CCN(S(=O)(=O)c2ccccc2C(F)(F)F)CC1 | inconclusive: 2.5 nM
CC(C)n1c2ccccc2c2nc3ccccc3nc21 | inconclusive: 1.3 nM
O=C(Nc1nn(Cc2ccccc2F)cc1Br)c1cccs1 | inconclusive: 1.8 nM
C=CCN1CCc2cc(O)c(O)cc2[C@H](c2ccccc2)C1 | inconclusive: 1.2 nM
O=C(COc1ccc(-c2nnco2)cc1)NC1CCCc2ccccc21 (stereo not drawn) | inconclusive: 1.1 nM
CCOC(=O)C1CCCN(C(=O)CN2CCN(Cc3ccc(Cl)cc3)C2=O)C1 (stereo not drawn) | inconclusive: 1.4 nM
COc1ccc(CNc2ncncc2-c2ccc3c(c2)OCO3)c(OC)c1 | inconclusive: 1.5 nM
COc1ccc(Cc2nn3c(-c4ccccc4OC)nnc3s2)cc1 | inconclusive: 1.1 nM
CCOC(=O)CCn1c(CC(=O)OCC)nc2ccccc21 | inconclusive: 1.5 nM
COc1ccc(CCNC(=O)c2sc(=S)n(C)c2N)cc1 | inconclusive: 1.1 nM
Cc1ccc(Cn2c(SCC(C)C)nc3c2c(=O)n(C)c(=O)n3C)cc1 | inconclusive: 1.2 nM
Cc1cc2cc(CNC(=O)c3ccc4c(c3)OCO4)ccc2n1C | inconclusive: 1.5 nM
C[N+](C)(C)CC(=O)N/N=C\c1c(O)ccc2ccccc12 | inconclusive: 1.7 nM
CCC1CCCCN1CCCNC(=O)COc1cc(=O)n(C)c2ccccc12 (stereo not drawn) | inconclusive: 1.1 nM
COc1ccccc1Nc1nc(N)nc(CN2CCN(Cc3ccccc3)CC2)n1 | inconclusive: 1.4 nM
COc1ccc(C(=O)[C@H]2[C@H]3[C@@H](C(=O)[C@@H]4OC[C@H]3O4)[C@H]3C=Cc4ccccc4N32)c(OC)c1 | inactive

16 entries from above, in markdown:

| SMILES | max dye-equivalent concentration |
| --- | --- |
| COCCNC(=O)C(c1ccc(C)o1)N(Cc1ccc(F)cc1)C(=O)Cn1nnc2ccccc21 (stereo not drawn) | inconclusive: 1.1 nM |
| Cc1ccn2cc(C(=O)Nc3ccccc3N3CCOCC3)nc2c1 | inconclusive: 1.9 nM |
| Cc1ccc2c(c1)-c1cc(C)nn1C(c1ccc3c(c1)OCO3)N2 (stereo not drawn) | inconclusive: 1.2 nM |
| COc1ccccc1NC(=O)CN1CCN(CC(=O)Nc2ccc3c(c2)OCO3)CC1 | inconclusive: 1.2 nM |
| NCCCCCNC(=O)/C=N\O | inconclusive: 1.2 nM |
| CCOc1ccc(-n2c(SCC(N)=O)nc3c(c2=O)SCC3)cc1 | inconclusive: 1.5 nM |
| Cn1c(SCC(N)=O)nnc1C1CCN(S(=O)(=O)c2ccccc2C(F)(F)F)CC1 | inconclusive: 2.5 nM |
| CC(C)n1c2ccccc2c2nc3ccccc3nc21 | inconclusive: 1.3 nM |
| O=C(Nc1nn(Cc2ccccc2F)cc1Br)c1cccs1 | inconclusive: 1.8 nM |
| CCOC(=O)C1CCCN(C(=O)CN2CCN(Cc3ccc(Cl)cc3)C2=O)C1 (stereo not drawn) | inconclusive: 1.4 nM |
| COc1ccc(Cc2nn3c(-c4ccccc4OC)nnc3s2)cc1 | inconclusive: 1.1 nM |
| COc1ccc(CCNC(=O)c2sc(=S)n(C)c2N)cc1 | inconclusive: 1.1 nM |
| Cc1cc2cc(CNC(=O)c3ccc4c(c3)OCO4)ccc2n1C | inconclusive: 1.5 nM |
| C[N+](C)(C)CC(=O)N/N=C\c1c(O)ccc2ccccc12 | inconclusive: 1.7 nM |
| COc1ccccc1Nc1nc(N)nc(CN2CCN(Cc3ccccc3)CC2)n1 | inconclusive: 1.4 nM |
| COc1ccc(C(=O)[C@H]2[C@H]3[C@@H](C(=O)[C@@H]4OC[C@H]3O4)[C@H]3C=Cc4ccccc4N32)c(OC)c1 | inactive |

(next part)

SMILES | max dye-equivalent concentration
NC(=O)N1c2ccccc2C=Cc2ccccc21 | inactive
CCOC(=O)C1CCCN(Cc2cccc(Cl)c2)C1 (stereo not drawn) | inconclusive: 1.1 nM
COC(=O)c1cc(-c2ccc3ccccc3c2)[nH]c(=O)c1C#N | inconclusive: 1.7 nM
Cc1cc(-c2nnc(SCc3cccnc3)o2)no1 | inconclusive: 1.1 nM
O=C(c1ccc2c(c1)OCO2)N1CCc2ccccc2C1 | inconclusive: 1.1 nM
CCOc1cc(NC(=O)c2ccco2)c(OCC)cc1NC(=O)Cc1ccc(OC)c(OC)c1 | inconclusive: 1.3 nM
O=C(CN(Cc1ccco1)C(=O)c1cc(=O)[nH]c2ccccc12)Nc1ccccc1C(F)(F)F | inconclusive: 2.1 nM
Nc1ccc(SCCN2C(=O)c3ccccc3C2=O)cc1 | inconclusive: 1.5 nM
COc1ccc(OC)c(S(=O)(=O)NCc2cn3cccc(C)c3n2)c1 | inconclusive: 1.4 nM
CC(=O)C[C@H](c1ccc([N+](=O)[O-])cc1)c1c(O)c2ccccc2oc1=O | inconclusive: 1.2 nM
O=C(O)c1cccc(NC(=O)C23CC4CC(C2)CC(n2cnc(Cl)n2)(C4)C3)c1 | inconclusive: 1.2 nM
OC[C@@H]1O[C@@H](n2cnc3c(NCc4ccco4)ncnc32)[C@H](O)[C@H]1O | inactive
COc1ccc(S(=O)(=O)Nc2ccc(NC(C)=O)cc2)cc1OC | inconclusive: 1.5 nM
COc1ccc2nc(NC(=O)CSc3nc4cccnc4n3C)sc2c1 | inconclusive: 1.8 nM
O=C(NCCc1ccc(Cl)cc1)C1CCN(c2cnccn2)CC1 | inconclusive: 1.2 nM
COc1cc(Cn2c(=O)oc3ccc(C)cc32)ccc1OC(C)C | inconclusive: 1.7 nM
COc1ccc(C(=O)COC(=O)Cn2nnc3ccccc32)cc1Br | inconclusive: 1.5 nM
O=C(CN1C(=O)COc2ccccc21)N1CCc2ccccc21 | inconclusive: 1.1 nM
CCCCn1c(SCC(=O)N2CCC(C)CC2)nc2cc(S(N)(=O)=O)ccc21 | inconclusive: 1.2 nM
COc1ccc(-c2noc(-c3ccco3)n2)cc1OC | inconclusive: 1.5 nM
O=C(CN1CCC(NC(=O)c2cccc(F)c2)CC1)NCc1ccccc1F | inconclusive: 1.7 nM
Cc1ccc(S(=O)(=O)N(Cc2nccn2C)C(C)C)cc1 | inconclusive: 1.1 nM
